Experimental data taken from article PMC4582117, “VEGF-A/NRP1 stimulates GIPC1 and Syx complex formation to promote RhoA activation and proliferation in skin cancer cells” (Biology Open, 2015).
Results are given in words; binding and its absence hold for the method and conditions named. In cells and extracts the contact can be indirect. Some binding calls cover weakened binding; strength is not graded here. Tags and fused reporters may be left off the sequences shown. Blank lines part the entries; values can stand above or below the molecule they belong to.

By UniProt entry, the sequences of proteins in these tests, tags left out. Residues count along the entry.
UniProt O14786, residues 22-923: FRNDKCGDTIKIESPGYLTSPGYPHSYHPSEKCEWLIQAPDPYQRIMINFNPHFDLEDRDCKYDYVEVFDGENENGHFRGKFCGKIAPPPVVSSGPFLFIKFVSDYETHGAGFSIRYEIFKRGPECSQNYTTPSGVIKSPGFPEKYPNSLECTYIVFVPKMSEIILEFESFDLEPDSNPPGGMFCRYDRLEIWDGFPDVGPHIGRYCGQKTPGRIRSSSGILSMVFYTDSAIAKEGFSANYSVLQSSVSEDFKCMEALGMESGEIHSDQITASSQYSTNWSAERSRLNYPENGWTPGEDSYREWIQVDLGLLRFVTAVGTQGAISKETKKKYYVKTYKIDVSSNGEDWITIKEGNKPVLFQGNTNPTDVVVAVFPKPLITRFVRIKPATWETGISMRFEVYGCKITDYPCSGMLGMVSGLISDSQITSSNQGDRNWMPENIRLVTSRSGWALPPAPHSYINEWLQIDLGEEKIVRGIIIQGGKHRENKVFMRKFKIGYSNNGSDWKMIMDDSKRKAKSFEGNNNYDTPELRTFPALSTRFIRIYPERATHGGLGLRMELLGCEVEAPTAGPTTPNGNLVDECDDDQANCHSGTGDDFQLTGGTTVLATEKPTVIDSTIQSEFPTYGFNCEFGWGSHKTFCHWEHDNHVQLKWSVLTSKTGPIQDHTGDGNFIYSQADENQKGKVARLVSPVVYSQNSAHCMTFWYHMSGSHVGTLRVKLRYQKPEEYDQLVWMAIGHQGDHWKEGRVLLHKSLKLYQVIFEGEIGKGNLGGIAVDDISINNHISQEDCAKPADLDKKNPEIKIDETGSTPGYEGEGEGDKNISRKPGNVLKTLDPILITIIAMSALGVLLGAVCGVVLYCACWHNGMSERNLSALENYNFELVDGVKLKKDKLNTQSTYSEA

Key:
[1] = target: T1, HA-tagged GIPC1 (GAIP interacting protein C terminus) (UniProt O14908); test: co-IP; NRP1, HA-GIPC1 and V5-Syx co-expressed in HEK293T; cells without or with VEGF-A (100 ng/ml, 15 min); lysed in RIPA buffer; immunoprecipitated with GIPC1 (anti-HA), Protein G Sepharose, 4°C; western blot
T1 sequence: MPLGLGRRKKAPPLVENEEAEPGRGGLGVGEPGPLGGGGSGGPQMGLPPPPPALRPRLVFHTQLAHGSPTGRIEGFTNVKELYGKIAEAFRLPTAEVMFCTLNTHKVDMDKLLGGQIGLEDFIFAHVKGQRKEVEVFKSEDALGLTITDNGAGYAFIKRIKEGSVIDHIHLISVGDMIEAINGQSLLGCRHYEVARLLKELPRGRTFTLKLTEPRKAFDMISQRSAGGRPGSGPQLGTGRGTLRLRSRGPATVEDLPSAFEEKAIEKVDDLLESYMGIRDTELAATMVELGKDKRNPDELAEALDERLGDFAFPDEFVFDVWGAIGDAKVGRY

V5-tagged Syx [2] = target: T2, V5-tagged Syx (UniProt O94827); test: co-IP; NRP1, HA-GIPC1 and V5-Syx co-expressed in HEK293T; cells without or with VEGF-A (100 ng/ml, 15 min); lysed in RIPA buffer; immunoprecipitated with Syx, Protein G Sepharose, 4°C; western blot
T2 sequence: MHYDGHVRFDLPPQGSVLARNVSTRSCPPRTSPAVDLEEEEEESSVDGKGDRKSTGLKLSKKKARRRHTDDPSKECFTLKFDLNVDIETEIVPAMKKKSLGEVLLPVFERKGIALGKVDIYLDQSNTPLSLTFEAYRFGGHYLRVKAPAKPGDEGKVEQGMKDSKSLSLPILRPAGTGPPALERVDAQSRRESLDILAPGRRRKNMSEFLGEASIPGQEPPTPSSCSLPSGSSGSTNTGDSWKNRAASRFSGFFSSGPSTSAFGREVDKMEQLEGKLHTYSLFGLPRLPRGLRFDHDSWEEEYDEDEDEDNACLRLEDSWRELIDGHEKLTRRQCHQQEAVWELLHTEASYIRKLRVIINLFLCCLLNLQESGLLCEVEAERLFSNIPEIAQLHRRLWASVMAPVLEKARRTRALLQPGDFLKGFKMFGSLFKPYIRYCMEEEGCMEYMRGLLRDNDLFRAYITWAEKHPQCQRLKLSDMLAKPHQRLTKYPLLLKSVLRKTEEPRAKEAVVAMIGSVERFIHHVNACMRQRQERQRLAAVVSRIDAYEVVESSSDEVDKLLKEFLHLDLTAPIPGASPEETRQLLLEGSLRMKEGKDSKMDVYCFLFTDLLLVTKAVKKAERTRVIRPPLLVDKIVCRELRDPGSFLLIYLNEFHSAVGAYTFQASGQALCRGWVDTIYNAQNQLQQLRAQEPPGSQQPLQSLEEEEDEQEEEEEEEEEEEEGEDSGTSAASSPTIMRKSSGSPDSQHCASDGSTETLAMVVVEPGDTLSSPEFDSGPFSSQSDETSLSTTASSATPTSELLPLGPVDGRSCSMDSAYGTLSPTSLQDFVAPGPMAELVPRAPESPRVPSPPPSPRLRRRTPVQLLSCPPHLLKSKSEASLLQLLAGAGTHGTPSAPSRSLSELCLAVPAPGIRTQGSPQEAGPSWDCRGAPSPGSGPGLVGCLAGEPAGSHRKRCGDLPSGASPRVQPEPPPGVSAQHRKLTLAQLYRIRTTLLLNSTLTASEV

V5-tagged Syx [3] = target: T2, V5-tagged Syx; test: co-IP; NRP1, GIPC1 and Syx expressed in HEK293T; cells treated with the Targeted or Scrambled peptide for 16 h, then without or with VEGF-A (100 ng/ml, 10 min); lysates immunoprecipitated with V5-tagged Syx; blot for GIPC1

binding [1]: binds
binding (V5-tagged Syx [2]): binds
Molecule: Human NRP1WT (Neuropilin-1 wild type) (from UniProt O14786 22-923) (receptor)

binding (V5-tagged Syx [2]): binds
binding (V5-tagged Syx [3]): binds
B1: HA-tagged GIPC1 (GAIP interacting protein C terminus) (protein, UniProt O14908 1-333)
chain: T1 sequence

binding [1]: binds
B2: V5-tagged Syx (protein, UniProt O94827 1-1006)
chain: T2 sequence
